Test results from publication PMC5155689, “Pro-invasive Effect of Proto-oncogene PBF Is Modulated by an Interaction with Cortactin” (The Journal of Clinical Endocrinology and Metabolism, 2016).
Changes are numbered by the printed parent chain. No constants are given. Whether binding was seen depends on the method and setting. Binding seen in cells or lysates may run through a third protein. Some results given as binding are weak or reduced against the parent protein; the word gives no strength. For part of these data: Where a sequence is shown, tags or fusion partners need not be part of it.

Chains of the proteins cited; added tags and fusions are not shown.
UniProt Q14247: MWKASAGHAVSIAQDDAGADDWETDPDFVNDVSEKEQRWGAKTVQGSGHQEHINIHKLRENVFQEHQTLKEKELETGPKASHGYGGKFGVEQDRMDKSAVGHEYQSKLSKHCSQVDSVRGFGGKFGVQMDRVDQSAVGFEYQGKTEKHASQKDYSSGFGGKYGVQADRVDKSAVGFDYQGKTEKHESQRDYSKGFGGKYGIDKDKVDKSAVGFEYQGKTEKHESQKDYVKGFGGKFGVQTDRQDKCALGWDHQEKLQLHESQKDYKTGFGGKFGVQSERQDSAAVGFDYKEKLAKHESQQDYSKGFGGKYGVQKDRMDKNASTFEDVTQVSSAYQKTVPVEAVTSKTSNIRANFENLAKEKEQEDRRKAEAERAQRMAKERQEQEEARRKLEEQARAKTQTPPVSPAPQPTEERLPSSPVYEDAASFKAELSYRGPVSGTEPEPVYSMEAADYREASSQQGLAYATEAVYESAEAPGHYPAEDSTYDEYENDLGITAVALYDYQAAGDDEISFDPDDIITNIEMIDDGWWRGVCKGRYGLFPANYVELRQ

What was measured:
[1] = target: T1, endogenous pY174 PBF (PBF phosphorylated at tyrosine 174) (human (endogenous in MCF-7, HeLa)) (UniProt P53801); assay: co-IP; endogenous CTTN and endogenous pY174 PBF in MCF-7 and HeLa cells
T1 sequence (chain, phosphotyrosine at 174): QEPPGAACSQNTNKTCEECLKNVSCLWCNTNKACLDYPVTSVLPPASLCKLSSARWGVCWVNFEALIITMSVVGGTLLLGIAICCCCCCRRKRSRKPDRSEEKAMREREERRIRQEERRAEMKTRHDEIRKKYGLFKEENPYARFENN

[2] = target: T1, endogenous pY174 PBF (PBF phosphorylated at tyrosine 174) (human (endogenous in MCF-7, HeLa)); assay: proximity ligation; Duolink in situ PLA of endogenous CTTN and endogenous pY174 PBF in HeLa cells
Y174A PBF-HA = target: T2, Y174A PBF-HA (UniProt P53801 33-180, Y174A); assay: proximity ligation; Duolink in situ PLA of PBF-HA (WT or Y174A) and myc-CTTN in transfected MCF-7, MDA-MB-231 and TPC-1 cells; also in cells halted during scratch wound assays
T2 construct: also called PBF mutant Y174A; phospho-null PBF mutant (Y174A)
T2 sequence (looked up): T1 sequence (chain, phosphotyrosine at 174) with Y142A

binding [1] | binding [2] | Substance | binding (Y174A PBF-HA)
binds | binds | endogenous cortactin (CTTN) (from UniProt Q14247 1-550) | –
– | – | human Myc-CTTN (cortactin) (from UniProt Q14247 1-550) | binds
